Patent US20110319424A1, “NAPHTHYRIDIN-2(1H) -ONE COMPOUNDS USEFUL AS ANTIBACTERIALS” (priority 2008, published 2011)
Some results were stated once for a whole list of compounds, not compound by compound.

Test system: Mycobacterium tuberculosis H37Rv
Assay: Mycobacterium tuberculosis H37Rv inhibition assay (MIC, resazurin fluorescence)
Assay type: cell-based
Details: H37Rv strain (ATCC25618), Middlebrook 7H9, six days at 37° C. then resazurin 48 hours; listed as lb, dihydrochloride

## Cl.Cl.O=c1ccc2ncc(F)cc2n1CCN1CCC(NCc2ccc(Br)cn2)CC1 [Example 1b, 1-[2-(4-{[(5-Bromo-2-pyridinyl)methyl]amino}-1-piperidinyl)ethyl]-7-fluoro-1,5-napthyridin-2(1H)-one dihydrochloride]
  MIC value: ≤ 2.4 µg/mL
